The list shows a part of the results.
The sequences below were run against OsWRKY34 (Oryza sativa, UniProt Q0JBA9 1-250) (assay: protein-binding microarray (RPBM); PBS, 2% BSA, 51.3 ng/ul salmon testes DNA, 50 uM zinc acetate, 200 nM TF, 25 C, 1 h; high values mean tight binding). Conditions: protein: recombinant; tags: N-terminal polyhistidine and DsRed monomer fusion (pET32a); label: CyDye5-dUTP incorporated in the synthesized complementary strand; 3' TTTTT single-stranded linker to array surface; dsDNA, one strand shown.
Method in brief: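 Transcription factors were each fused at the N-terminus to a polyhistidine tag plus DsRed and expressed in E. coli BL21-CodonPlus before Ni–NTA purification. Binding to a double-stranded custom Agilent array was carried out with 200 nM protein at 25 °C for 1 h in PBS, 2% BSA, salmon testes DNA and 50 µM zinc acetate. The binding signal is per-feature fluorescence intensity, in arbitrary units, on an Axon 4000B scanner.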

Protein sequences, listed by entry. Tags and fused reporters are not part of them.
UniProt Q0JBA9, entry or part of it: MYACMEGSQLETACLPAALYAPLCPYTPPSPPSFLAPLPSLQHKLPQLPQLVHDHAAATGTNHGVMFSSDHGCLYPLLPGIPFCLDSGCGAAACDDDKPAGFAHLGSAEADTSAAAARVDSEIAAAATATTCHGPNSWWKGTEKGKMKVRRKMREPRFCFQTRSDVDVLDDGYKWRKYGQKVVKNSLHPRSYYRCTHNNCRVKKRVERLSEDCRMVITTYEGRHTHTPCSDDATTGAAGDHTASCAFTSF

Sequence	binding signal
TGAAACATCGCTCATATTTTTACTGGTATCCTCGATTTTACGGAGTCACCTAGTGCAG	9040 fluorescence intensity (a.u.)
TGTATATTCTGATCAAACATTGGCGTCTACTACTCTACTACGGAGTCACCTAGTGCAG	8030 fluorescence intensity (a.u.)
CAACTGGGGAGCAAGATAGGGGAGGAAAGACAGACTTATTCGGAGTCACCTAGTGCAG	8980 fluorescence intensity (a.u.)
CCGTCAGTTCTCTCTTCTCTCTTCTTCTTCTGACGTCGCCCGGAGTCACCTAGTGCAG	8170 fluorescence intensity (a.u.)
GCGCTGTCAGTGTGTGGGTGGTAGTATATTTTTTTCTTTTCGGAGTCACCTAGTGCAG	12500 fluorescence intensity (a.u.)
GCACTCGTTCGGCTTCTACTATATAAGATAGACATCGTACCGGAGTCACCTAGTGCAG	8650 fluorescence intensity (a.u.)
GAGCCAGCTGCTCCCTAATCATCATCACTTACATTATTCTCGGAGTCACCTAGTGCAG	9740 fluorescence intensity (a.u.)
TTCTTTCCTTTGTATTCTCGTGCGCGCATAGCAACTGCAACGGAGTCACCTAGTGCAG	8100 fluorescence intensity (a.u.)
TCCAATGCATGCCGACTCTTTGAGTCCCCATTCGATTCGACGGAGTCACCTAGTGCAG	9470 fluorescence intensity (a.u.)
GTGTTTTTTCCTTCCTAATTTAAAAGCATTTTTCACATTACGGAGTCACCTAGTGCAG	8150 fluorescence intensity (a.u.)
TGTGGAAGAATGGGTGTGTTGATTGATGTGATTTAAATTACGGAGTCACCTAGTGCAG	8960 fluorescence intensity (a.u.)
CCACTTCATTCCCTACCACGCCGTCATCCATGGCCGCCGGCGGAGTCACCTAGTGCAG	12700 fluorescence intensity (a.u.)
CTTTGCAGTTTTGACACCCTGTGGGACGTCTACCCAGCGCCGGAGTCACCTAGTGCAG	8290 fluorescence intensity (a.u.)
CTCGTCGCCGATCCGATCCGCCTCCGCCTCCGCCTCGCGGCGGAGTCACCTAGTGCAG	10100 fluorescence intensity (a.u.)
ACCCTAAGGGTCTCATCTTTTCGCTTATACTTATCAAACACGGAGTCACCTAGTGCAG	8100 fluorescence intensity (a.u.)
TTTTTTCATTCGTGTCCAAAAACCCCTTCCGACATCCGGTCGGAGTCACCTAGTGCAG	8330 fluorescence intensity (a.u.)
GTCATGTTTAGGGGATGGTATGGAAGGGGAAAACAGTGTGCGGAGTCACCTAGTGCAG	8280 fluorescence intensity (a.u.)
AACGTTTGACCACTCGTCTTATTTAATTTTTTTTTGTAAACGGAGTCACCTAGTGCAG	8410 fluorescence intensity (a.u.)
CACCCATCGATATCCATCTCCATCTCATCTCGCCACCCAACGGAGTCACCTAGTGCAG	10300 fluorescence intensity (a.u.)
CCACCGCCGCCTCCGCGTCCCTCTGCCTCACCTCGACGCCCGGAGTCACCTAGTGCAG	12100 fluorescence intensity (a.u.)
CACACACAAACTTTTAACTTTTTCGTCACATCGTTCCAATCGGAGTCACCTAGTGCAG	8920 fluorescence intensity (a.u.)

At a glance, some entries already given:
Sequence	binding signal
GTGTTTTTTCCTTCCTAATTTAAAAGCATTTTTCACATTACGGAGTCACCTAGTGCAG	8150 fluorescence intensity (a.u.)
TGTGGAAGAATGGGTGTGTTGATTGATGTGATTTAAATTACGGAGTCACCTAGTGCAG	8960 fluorescence intensity (a.u.)

The listing continues.

Sequence	binding signal
AGAGCTGCACAAGGTTTCTTTTATTGTTTGCTTATCTATTCGGAGTCACCTAGTGCAG	8880 fluorescence intensity (a.u.)
GGTGGTTGTGTTTTCACATTCAGTAGGGTGGTGCACCGTACGGAGTCACCTAGTGCAG	8740 fluorescence intensity (a.u.)
CGCCGCCGCATCTCCTCCTTCCTCTCTTGGCAACTGTCGGCGGAGTCACCTAGTGCAG	8300 fluorescence intensity (a.u.)
AATATTCGACGCCGTTCACTTTTTTAAATATGTTTGACCACGGAGTCACCTAGTGCAG	9820 fluorescence intensity (a.u.)
TCAGATAATTTTTTTTCACATTGATCTCGATTTTGGTTTGCGGAGTCACCTAGTGCAG	10500 fluorescence intensity (a.u.)
GGGCGGCATCTCTCGCGCAGATCCCCACGCTTTTTCTCCGCGGAGTCACCTAGTGCAG	10100 fluorescence intensity (a.u.)
GTTCATCAATCTACTGTACTGGCCTCCTTCTCAGCTCTCACGGAGTCACCTAGTGCAG	9300 fluorescence intensity (a.u.)
GAAAGCTTGCAATCCGAGCATCTGTTTGTTCTATTTGTTTCGGAGTCACCTAGTGCAG	8520 fluorescence intensity (a.u.)
GCGCCCATGCCCACCACCGCCGCCGCCGCCGCTTCCGATGCGGAGTCACCTAGTGCAG	8590 fluorescence intensity (a.u.)
ACTGTGTTCTTTAGTCTATTTTCCCAACTTCCCCTTTCTTCGGAGTCACCTAGTGCAG	8460 fluorescence intensity (a.u.)
AGAGAATTCAGGGGCCAGCTAATATACTTGATTTTCTTCCCGGAGTCACCTAGTGCAG	8420 fluorescence intensity (a.u.)
AAGATTTGCTGGGAGGGTGGGGTGGGGATTAGTCCCTAAACGGAGTCACCTAGTGCAG	24500 fluorescence intensity (a.u.)
GGTCACATGTAGGCCTCATTTCCATTCCAGCCCAACATTTCGGAGTCACCTAGTGCAG	8670 fluorescence intensity (a.u.)
GGGGTGTCGTCGTTCGTCCTACCGCTTCCGCCGCATCCTGCGGAGTCACCTAGTGCAG	11200 fluorescence intensity (a.u.)
GAGTCGGGGTGGGCTGGCGGTCGAGATGACGCAAGCGACGCGGAGTCACCTAGTGCAG	11000 fluorescence intensity (a.u.)
TACAGCACACGACTTAATTGCATGCCACCCAGATTATGACCGGAGTCACCTAGTGCAG	9180 fluorescence intensity (a.u.)
TTTTTTTTTACTGCTGCCTCTCAATTTGAGTCCCTGTTAACGGAGTCACCTAGTGCAG	8800 fluorescence intensity (a.u.)
TGGGTGTTACATCGGACGTTTGACCGGATGTCGGAAGGGGCGGAGTCACCTAGTGCAG	9260 fluorescence intensity (a.u.)
AACACAATTACTCAGATCCACCGGGACCACCACCGTCCACCGGAGTCACCTAGTGCAG	8340 fluorescence intensity (a.u.)
CCCTCGAATCCCGCGCCTGCACCGAGTGCCTGACCACAACCGGAGTCACCTAGTGCAG	9140 fluorescence intensity (a.u.)
TTTTCGGTTTCGGGTTGTTTATTTGGATATCCGAGTTTATCGGAGTCACCTAGTGCAG	8060 fluorescence intensity (a.u.)
